# According to the supplement of paper PMC8728848:
# The other results are listed elsewhere or left out.
# Experiments:
# Assay in all cases: glycan array binding signal (z-score within array); higher = stronger binding
# Conditions in all cases: glycan notation: IUPAC condensed, linker removed
# [1] = target: Gal(a1-3)GalNAc
# In short: (§1)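 Columns mapping to the same glycan were averaged after glycan names were converted to IUPAC-condensed notation. The data come from 3228 arrays in the Consortium for Functional Glycomics database, limited to those with an available protein sequence. Binding is reported as a within-array Z-score averaged across arrays of one protein sequence and across linkers.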
# [2] = target: Gal(a1-3)[Gal(a1-4)]Gal(b1-4)GlcNAc
# In short: as §1
# [3] = target: Gal(a1-4)Gal(b1-3)GlcNAc(b1-2)Man(a1-3)[Gal(a1-4)Gal(b1-3)GlcNAc(b1-2)Man(a1-6)]Man(b1-4)GlcNAc(b1-4)GlcNAc
# In short: as §1
# [4] = target: Gal(a1-4)Gal(b1-4)Glc
# In short: as §1
# [5] = target: Gal(a1-4)Gal(b1-4)GlcNAc
# In short: as §1
# [6] = target: Gal(a1-4)Gal(b1-4)GlcNAc(b1-2)Man(a1-3)[Gal(a1-4)Gal(b1-4)GlcNAc(b1-2)Man(a1-6)]Man(b1-4)GlcNAc(b1-4)GlcNAc
# In short: as §1
# [7] = target: Gal(a1-4)Gal(b1-4)GlcNAc(b1-3)Gal(b1-4)Glc
# In short: as §1
# [8] = target: Gal(a1-4)GlcNAc
# In short: as §1
# [9] = target: Gal(a1-6)Glc
# In short: as §1
# [10] = target: Gal(b1-2)Gal
# In short: as §1
# [11] = target: Gal(b1-3)Gal
# In short: as §1
# [12] = target: Gal(b1-3)Gal(b1-4)GlcNAc
# In short: as §1
# [13] = target: Gal(b1-3)Gal(b1-4)GlcNAc(b1-2)Man(a1-3)[Gal(b1-3)Gal(b1-4)GlcNAc(b1-2)Man(a1-6)]Man(b1-4)GlcNAc(b1-4)GlcNAc
# In short: as §1
# [14] = target: Gal(b1-3)GalNAc
# In short: as §1
# [15] = target: Gal(b1-3)GalNAc(a1-3)[Fuc(a1-2)]Gal(b1-4)Glc
# In short: as §1
# [16] = target: Gal(b1-3)GalNAc(a1-3)[Fuc(a1-2)]Gal(b1-4)GlcNAc
# In short: as §1
# [17] = target: Gal(b1-3)GalNAc(b1-3)Gal(a1-4)Gal(b1-4)Glc
# In short: as §1
# [18] = target: Gal(b1-3)GalNAc(b1-4)Gal(b1-4)Glc
# In short: as §1
# [19] = target: Gal(b1-3)GalNAc(b1-4)[Neu5Ac(a2-3)]Gal(b1-4)Glc
# In short: as §1
# [20] = target: Gal(b1-3)GlcNAc
# In short: as §1
# [21] = target: Gal(b1-3)GlcNAc(a1-6)Gal(b1-4)GlcNAc
# In short: as §1
# [22] = target: Gal(b1-3)GlcNAc(b1-2)Man(a1-3)[Gal(b1-3)GlcNAc(b1-2)Man(a1-6)]Man(b1-4)GlcNAc(b1-4)GlcNAc
# In short: as §1
# [23] = target: Gal(b1-3)GlcNAc(b1-2)Man(a1-3)[Gal(b1-3)GlcNAc(b1-2)Man(a1-6)]Man(b1-4)GlcNAc(b1-4)[Fuc(a1-6)]GlcNAc
# In short: as §1
# [24] = target: Gal(b1-3)GlcNAc(b1-3)Gal(b1-3)GlcNAc
# In short: as §1
# [25] = target: Gal(b1-3)GlcNAc(b1-3)Gal(b1-4)Glc
# In short: as §1
# [26] = target: Gal(b1-3)GlcNAc(b1-3)Gal(b1-4)GlcNAc
# In short: as §1
# [27] = target: Gal(b1-3)GlcNAc(b1-3)Gal(b1-4)GlcNAc(b1-6)[Gal(b1-3)GlcNAc(b1-3)]Gal(b1-4)Glc
# In short: as §1
# [28] = target: Gal(b1-3)GlcNAc(b1-3)Gal(b1-4)[Fuc(a1-3)]GlcNAc(b1-6)[Gal(b1-3)GlcNAc(b1-3)]Gal(b1-4)Glc
# In short: as §1
# [29] = target: Gal(b1-3)GlcNAc(b1-3)GalNAc
# In short: as §1
# [30] = target: Gal(b1-3)GlcNAc(b1-6)Gal(b1-4)GlcNAc
# In short: as §1
# [31] = target: Gal(b1-3)[Fuc(a1-4)]GlcNAc
# In short: as §1
# [32] = target: Gal(b1-3)[Fuc(a1-4)]GlcNAc(b1-2)Man(a1-3)[Gal(b1-3)[Fuc(a1-4)]GlcNAc(b1-2)Man(a1-6)]Man(b1-4)GlcNAc(b1-4)GlcNAc
# In short: as §1
# [33] = target: Gal(b1-3)[Fuc(a1-4)]GlcNAc(b1-2)Man(a1-3)[Gal(b1-3)[Fuc(a1-4)]GlcNAc(b1-2)Man(a1-6)]Man(b1-4)GlcNAc(b1-4)[Fuc(a1-6)]GlcNAc
# In short: as §1
# [34] = target: Gal(b1-3)[Fuc(a1-4)]GlcNAc(b1-3)Gal(b1-3)[Fuc(a1-4)]GlcNAc
# In short: as §1
# [35] = target: Gal(b1-3)[Fuc(a1-4)]GlcNAc(b1-3)Gal(b1-4)GlcNAc
# In short: as §1
# [36] = target: Gal(b1-3)[Fuc(a1-4)]GlcNAc(b1-3)Gal(b1-4)[Fuc(a1-3)]GlcNAc
# In short: as §1
# [37] = target: Gal(b1-3)[GlcNAc(b1-6)]GalNAc
# In short: as §1
binder,measurement,setting,value
"PEB4 (Campylobacter jejuni), A1VYV6 (protein) MKKFSLVAAALIAGVALNVNAATVATVNGKSISDAEVSEFFAPMLRGQDFKTLPDNQKKALIQQYIMQDLILQDAKKQNLEKDPLYTKELDRAKDAILVNVYQEKILNTIKIDAAKVKAFYDQNKDKYVKPARVQAKHILVATEKEAKDIINELKGLKGKELDAKFSELAKEKSIDPGSKNQGGELGWFDQSTMVKPFTDAAFALKNGTITTTPVKTNFGYHVILKENSQAKGQIKFDEVKQGIENGLKFEEFKKVINQKGQDLLNSAKVEYK",glycan array binding signal (z-score),[1],0.083
same,glycan array binding signal (z-score),[2],-0.261
same,glycan array binding signal (z-score),[3],0.844
same,glycan array binding signal (z-score),[4],-0.588
same,glycan array binding signal (z-score),[5],-0.782
same,glycan array binding signal (z-score),[6],0.194
same,glycan array binding signal (z-score),[7],-0.124
same,glycan array binding signal (z-score),[8],-1.09
same,glycan array binding signal (z-score),[9],-0.593
same,glycan array binding signal (z-score),[10],-0.391
same,glycan array binding signal (z-score),[11],-1.15
same,glycan array binding signal (z-score),[12],-0.951
same,glycan array binding signal (z-score),[13],-0.346
same,glycan array binding signal (z-score),[14],-0.212
same,glycan array binding signal (z-score),[15],0.326
same,glycan array binding signal (z-score),[16],0.271
same,glycan array binding signal (z-score),[17],0.113
same,glycan array binding signal (z-score),[18],-0.214
same,glycan array binding signal (z-score),[19],-0.512
same,glycan array binding signal (z-score),[20],-0.269
same,glycan array binding signal (z-score),[21],2.54
same,glycan array binding signal (z-score),[22],-0.056
same,glycan array binding signal (z-score),[23],0.11
same,glycan array binding signal (z-score),[24],-0.625
same,glycan array binding signal (z-score),[25],-0.744
same,glycan array binding signal (z-score),[26],0.262
same,glycan array binding signal (z-score),[27],-0.406
same,glycan array binding signal (z-score),[28],0.4
same,glycan array binding signal (z-score),[29],0.062
same,glycan array binding signal (z-score),[30],-1.16
same,glycan array binding signal (z-score),[31],-0.557
same,glycan array binding signal (z-score),[32],1.2
same,glycan array binding signal (z-score),[33],0.14
same,glycan array binding signal (z-score),[34],2.99
same,glycan array binding signal (z-score),[35],-0.586
same,glycan array binding signal (z-score),[36],0.387
same,glycan array binding signal (z-score),[37],-0.623

# Random excerpt: two entries already listed, in no set order.
binder,measurement,setting,value
"PEB4 (Campylobacter jejuni), A1VYV6 (protein) MKKFSLVAAALIAGVALNVNAATVATVNGKSISDAEVSEFFAPMLRGQDFKTLPDNQKKALIQQYIMQDLILQDAKKQNLEKDPLYTKELDRAKDAILVNVYQEKILNTIKIDAAKVKAFYDQNKDKYVKPARVQAKHILVATEKEAKDIINELKGLKGKELDAKFSELAKEKSIDPGSKNQGGELGWFDQSTMVKPFTDAAFALKNGTITTTPVKTNFGYHVILKENSQAKGQIKFDEVKQGIENGLKFEEFKKVINQKGQDLLNSAKVEYK",glycan array binding signal (z-score),[19],-0.512
same,glycan array binding signal (z-score),[30],-1.16
